This is one part of the list.

The values that follow come from PMC7819943, “Rice protein-binding microarrays: a tool to detect cis-acting elements near promoter regions in rice”.

The target of the experiment is T1, OsSMF1 (Oryza sativa, UniProt Q6ZLB0 1-436).
T1 sequence: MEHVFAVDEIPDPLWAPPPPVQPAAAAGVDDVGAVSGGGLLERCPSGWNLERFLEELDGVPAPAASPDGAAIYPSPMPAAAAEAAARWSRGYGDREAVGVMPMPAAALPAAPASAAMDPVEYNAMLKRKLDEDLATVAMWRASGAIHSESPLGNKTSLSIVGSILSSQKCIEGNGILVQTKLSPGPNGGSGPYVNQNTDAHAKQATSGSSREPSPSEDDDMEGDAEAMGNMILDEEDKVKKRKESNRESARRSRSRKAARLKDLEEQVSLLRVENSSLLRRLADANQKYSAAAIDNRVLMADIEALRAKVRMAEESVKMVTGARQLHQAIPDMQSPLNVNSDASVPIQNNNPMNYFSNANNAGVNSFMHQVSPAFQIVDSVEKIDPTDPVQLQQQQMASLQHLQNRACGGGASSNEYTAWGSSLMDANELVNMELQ
The experiment in a line: protein-binding microarray (RPBM); PBS, 2% BSA, 51.3 ng/ul salmon testes DNA, 50 uM zinc acetate, 200 nM TF, 25 C, 1 h; high values mean tight binding. The conditions noted are these: protein: recombinant; tags: N-terminal polyhistidine and DsRed monomer fusion (pET32a); chain copies: 2; label: CyDye5-dUTP incorporated in the synthesized complementary strand; 3' TTTTT single-stranded linker to array surface; dsDNA, one strand shown. The procedure, abridged:
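Transcription factors were each fused at the N-terminus to a polyhistidine tag plus DsRed and expressed in E. coli BL21-CodonPlus before Ni–NTA purification. Binding to a double-stranded custom Agilent array was carried out with 200 nM protein at 25 °C for 1 h in PBS, 2% BSA, salmon testes DNA and 50 µM zinc acetate. The binding signal is per-feature fluorescence intensity, in arbitrary units, on an Axon 4000B scanner.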
For the sequence “CTACCAGACCCGTGGGCCGGCTCTGCCTCGCCTAATCCAGCGGAGTCACCTAGTGCAG”, the binding signal is 47000 fluorescence intensity (a.u.). As to “CTAATGGCACATAGAAATTAGGAGTAACTGTTGTTTAAAACGGAGTCACCTAGTGCAG”, the binding signal is 37600 fluorescence intensity (a.u.).

As for “GAAACCCCGTGGGCCCCACCTGTCATTCACTCACCCACCCCGGAGTCACCTAGTGCAG”, the binding signal was 3460 fluorescence intensity (a.u.). As for “TAGGCTCCAACCCAGGCAGGCGCCGCCCACCTTGACGAGGCGGAGTCACCTAGTGCAG”, the figure is 3500 fluorescence intensity (a.u.); as for “TCTACACATGGACATGCTGCCTGCTGCATCATATCGTCTGCGGAGTCACCTAGTGCAG”, 3480 fluorescence intensity (a.u.). As to “GCAGGCTATTGAACGCGGCAAGGTTAGGTACCACGCCATACGGAGTCACCTAGTGCAG”, the binding signal is 27600 fluorescence intensity (a.u.). As for “TTTTCCTTGATGACGTAGCTAAGTCAAGCCTATTAACATGCGGAGTCACCTAGTGCAG”, the figure is 4950 fluorescence intensity (a.u.); as for “GTCCCTCCGCCGGCATCAGCTCAACGCCGCCGTCCTCCTCCGGAGTCACCTAGTGCAG”, 3370 fluorescence intensity (a.u.); as for “GGGGATGGAGATTGTCTTTTCTAGTTTTAGCACTATCCGCCGGAGTCACCTAGTGCAG”, 3300 fluorescence intensity (a.u.). For “GTTGGTGGTGGAGCGGGAGGAGGTGCCGGTGGAGGCGGTGCGGAGTCACCTAGTGCAG” the value was 53000 fluorescence intensity (a.u.). As for “GATTAACACGACATTAATAGGTACAAATTAAAACACTTACCGGAGTCACCTAGTGCAG”, the figure is 14500 fluorescence intensity (a.u.). Regarding “CGAGGCGGCTTGACATTGTGTTTGAACTTACGTGCCCAAGCGGAGTCACCTAGTGCAG”, the binding signal was 4260 fluorescence intensity (a.u.). With “CGCCCCACACGTCTGCGTGGTTTGACGTGACAAAATCGGTCGGAGTCACCTAGTGCAG”, the binding signal is 3980 fluorescence intensity (a.u.). For “TTATGGCCGAGCGCGCATGCGCATGCACCAACACGTGTGGCGGAGTCACCTAGTGCAG”, the binding signal was 4570 fluorescence intensity (a.u.).

For “CCAAGAGGAGTAATTTGATTGGCTAAGGCAGAGAATAGAGCGGAGTCACCTAGTGCAG”, the binding signal is 31600 fluorescence intensity (a.u.). As for “AGGATTAGCAATATATTTATGATGTCATCAGGGCTAGTGACGGAGTCACCTAGTGCAG”, the figure is 5410 fluorescence intensity (a.u.); as for “CACGTGATTCGTATACTATAGTACTACTCACGTTGGAGACCGGAGTCACCTAGTGCAG”, 3570 fluorescence intensity (a.u.).

For the sequence “TGATTATTTGTGAAATAAAATGAGATAAAATGTGATTTTACGGAGTCACCTAGTGCAG”, the binding signal was 28600 fluorescence intensity (a.u.).

For the sequence “TCGAGAACTATAGACGTTTTACGTCATTCTTTTACATTAGCGGAGTCACCTAGTGCAG”, the binding signal was 5230 fluorescence intensity (a.u.). For “CCGCCCGTTCGTGCGAGGAGGAGGAAAAGCCACACGTGTTCGGAGTCACCTAGTGCAG” the value was 6640 fluorescence intensity (a.u.); for “GATTGATCATGGTTGTTCGTCCTCGACGACCTCTACACCACGGAGTCACCTAGTGCAG”, 31400 fluorescence intensity (a.u.); for “TCACATGATGCCACGTGCATATAGATCGATCGGGTTCAGACGGAGTCACCTAGTGCAG”, 5930 fluorescence intensity (a.u.).

With “TTTTCAGATTTCCAGGGTGAGGATGGGATGTGCTCATGTGCGGAGTCACCTAGTGCAG”, the binding signal is 3830 fluorescence intensity (a.u.).

As for “GCGGGTGATGTAGGGGACCACCATGAATCATACACCAATGCGGAGTCACCTAGTGCAG”, the binding signal was 3140 fluorescence intensity (a.u.).

Consider “CACAGATACCCATGATTGCACTTATTTTGTGACGGGTGTACGGAGTCACCTAGTGCAG”, for which the binding signal was 3660 fluorescence intensity (a.u.). For “CCTATCCTATGCATGAAATGAGTCAGAGGCCCACGATAGCCGGAGTCACCTAGTGCAG” the value was 5360 fluorescence intensity (a.u.); for “ACAGGCGAGGGTGGAACCCCGCGTGGCGAGAGCGTTGCGGCGGAGTCACCTAGTGCAG”, 4270 fluorescence intensity (a.u.); for “ATGAACTAAACGCACCCTTGTAAGTCTGACACACTGTGGACGGAGTCACCTAGTGCAG”, 3720 fluorescence intensity (a.u.). As for “GAGTTGAAGCCCGAAACCCTGATGTGAGTTGGACAGGTGTCGGAGTCACCTAGTGCAG”, the figure is 3940 fluorescence intensity (a.u.). In the case of “GGACCCCAACCACTATGCCGTAATTTAGCGTGTTTTCCCGCGGAGTCACCTAGTGCAG”, the binding signal was 4150 fluorescence intensity (a.u.). For “ATATATACTTAAACCACTGACTCATACTAATTCGTAAACACGGAGTCACCTAGTGCAG” the value was 4360 fluorescence intensity (a.u.). For “AAACTGACTCATACAAATGCCATTCTGTACATCCAGTGTCCGGAGTCACCTAGTGCAG” the value was 4500 fluorescence intensity (a.u.). As for “TACTCCACTATACAAACCGACACTCGTGGGGTACGTCACTCGGAGTCACCTAGTGCAG”, the figure is 4850 fluorescence intensity (a.u.); as for “AATGATTGAAATCGGGGCGCAAATTATTGCGATTATTATTCGGAGTCACCTAGTGCAG”, 35000 fluorescence intensity (a.u.); as for “CATTTTCGACTCGCCGACGCCGACGTGTTCACCAATCACCCGGAGTCACCTAGTGCAG”, 4540 fluorescence intensity (a.u.). Take “GGATGGATGTGACACATCCTAATATAATGAATCTGAACAGCGGAGTCACCTAGTGCAG”: the binding signal was 3770 fluorescence intensity (a.u.). Take “CTCGATCGCCACCGCACCACCGTCCACCGCGAGCGCGCCCCGGAGTCACCTAGTGCAG”: the binding signal was 4190 fluorescence intensity (a.u.). For “TGTCGAGTCGAGCACGATGGGCCGTGCCGTGGAGTGCCAGCGGAGTCACCTAGTGCAG” the value was 3620 fluorescence intensity (a.u.); for “ATTGTGTGGTTTCTCCCTCTCTGGTTCTACCGCTTCTCCTCGGAGTCACCTAGTGCAG”, 27300 fluorescence intensity (a.u.); for “GAGCCGTCCATATAAATCCACGCCGTCGCCGCCGAATCTCCGGAGTCACCTAGTGCAG”, 3370 fluorescence intensity (a.u.). As for “GGGGAGAGGGAGGAGGAGGAGGAGAGTGGCTACTAGTACTCGGAGTCACCTAGTGCAG”, the figure is 3380 fluorescence intensity (a.u.); as for “GCCGGCGCCTCGTCCGTCATTCCGCCTGTGTCAAGCCGAACGGAGTCACCTAGTGCAG”, 3390 fluorescence intensity (a.u.); as for “ACAACGTCACGACGACACATGACACGGCCTCCTCAGCTCCCGGAGTCACCTAGTGCAG”, 5570 fluorescence intensity (a.u.). For “TTGAAATCCCACACATGCCAGTCATCTAGCTAAGAGGCCACGGAGTCACCTAGTGCAG” the value was 3960 fluorescence intensity (a.u.). Regarding “TTTTAGGAGTTAAGAGACGCGTCATATATATCTATCTGGACGGAGTCACCTAGTGCAG”, the binding signal was 3720 fluorescence intensity (a.u.). For “AGGTGCGTGCGTGCGTGCGACCGACCTGAAAATCCAAAGCCGGAGTCACCTAGTGCAG” the value was 6790 fluorescence intensity (a.u.); for “GGGTGTTTTGTTGACTATGAGTACTTTGACTGAAGAGGGTCGGAGTCACCTAGTGCAG”, 3250 fluorescence intensity (a.u.); for “GCGGCGCGGACGCGTGGGGCGTGAGGTGGACAGGTGGCGCCGGAGTCACCTAGTGCAG”, 9260 fluorescence intensity (a.u.). In the case of “CACGAGACGTGTTCGTTCCTGCTCGGTCTCTGATCAGTTTCGGAGTCACCTAGTGCAG”, the binding signal is 3360 fluorescence intensity (a.u.). For “TAGATGGGCCTAAACCCAGCTAATATACGTGGAGGCCCATCGGAGTCACCTAGTGCAG” the value was 3990 fluorescence intensity (a.u.). As for “GCCGTGACACGTGTCCCTCCCGTCCGCCGCTCCCGATTCCCGGAGTCACCTAGTGCAG”, the figure is 26000 fluorescence intensity (a.u.).

Regarding “AGAATCTGGAGGACGGGACTGGACAAACACGTAGGAGGAGCGGAGTCACCTAGTGCAG”, the binding signal is 3380 fluorescence intensity (a.u.). For “GACGAGGCTATCCAGCCCGGCCTACGAGGCTGCGCGTCACCGGAGTCACCTAGTGCAG” the value was 4650 fluorescence intensity (a.u.); for “CTCACTCCTAATTACTAAATATTCCACCTCAGCAATCTTCCGGAGTCACCTAGTGCAG”, 11800 fluorescence intensity (a.u.).
